Results are given in words; binding and its absence hold for the method and conditions named. Some results given as binding are weak or reduced against the parent protein; the word gives no strength.
B1: 28S1 mouse anti-human α9 integrin monoclonal antibody (FERM BP-10832) (antibody, mouse IgG1, V domains shown)
VH: VKLQESGPGLVAPSQSLSITCTVSGFSLTGYGVNWVRQPPGKGLEWLGMIWGDGITEYNSALKSRLSISKDNSKSQVFLKMNSLQTDDTARYYCARDASSGYGFAYWGQGTTVTVSS
VL: YIVLTQSPAIMSASLGERVTMTCTASSSVSSSYLHWYQQKPGSSPKLWIYSTSNLASGVPARFSGSGSGTSYSLTISSMEAEDAATYYCHQYHRSPYTFGGGTKLEIKR
notes: Mouse IgG1 from hybridoma
B2: humanized 24I11 IgG1/κ antibody (antibody, V domains shown)
VH: QVQLVQSGAEVKKPGASVKVSCKASGFNIKDTYVHWVRQAPGQRLEWIGNIDPANGNTKYDPKFQGKATITADTSASTAYMELSSLRSEDTAVYYCARWLRHFYYAMDYWGQGTLVTVSS
VL: DIQMTQSPSSLSASVGDRVTITCRASENIYYSLAWYQQKPGKAPKLLIYNANSLEDGVPSRFSGSGSGTQYTLTISSLQPEDFATYYCKQAYDVPYTFGQGTKVEIK

Assays:
[1] = biological target: T1, human α9 integrin (human) (UniProt Q13797); assay: hybridoma screening on transfected CHO-K1 cells
T1 sequence: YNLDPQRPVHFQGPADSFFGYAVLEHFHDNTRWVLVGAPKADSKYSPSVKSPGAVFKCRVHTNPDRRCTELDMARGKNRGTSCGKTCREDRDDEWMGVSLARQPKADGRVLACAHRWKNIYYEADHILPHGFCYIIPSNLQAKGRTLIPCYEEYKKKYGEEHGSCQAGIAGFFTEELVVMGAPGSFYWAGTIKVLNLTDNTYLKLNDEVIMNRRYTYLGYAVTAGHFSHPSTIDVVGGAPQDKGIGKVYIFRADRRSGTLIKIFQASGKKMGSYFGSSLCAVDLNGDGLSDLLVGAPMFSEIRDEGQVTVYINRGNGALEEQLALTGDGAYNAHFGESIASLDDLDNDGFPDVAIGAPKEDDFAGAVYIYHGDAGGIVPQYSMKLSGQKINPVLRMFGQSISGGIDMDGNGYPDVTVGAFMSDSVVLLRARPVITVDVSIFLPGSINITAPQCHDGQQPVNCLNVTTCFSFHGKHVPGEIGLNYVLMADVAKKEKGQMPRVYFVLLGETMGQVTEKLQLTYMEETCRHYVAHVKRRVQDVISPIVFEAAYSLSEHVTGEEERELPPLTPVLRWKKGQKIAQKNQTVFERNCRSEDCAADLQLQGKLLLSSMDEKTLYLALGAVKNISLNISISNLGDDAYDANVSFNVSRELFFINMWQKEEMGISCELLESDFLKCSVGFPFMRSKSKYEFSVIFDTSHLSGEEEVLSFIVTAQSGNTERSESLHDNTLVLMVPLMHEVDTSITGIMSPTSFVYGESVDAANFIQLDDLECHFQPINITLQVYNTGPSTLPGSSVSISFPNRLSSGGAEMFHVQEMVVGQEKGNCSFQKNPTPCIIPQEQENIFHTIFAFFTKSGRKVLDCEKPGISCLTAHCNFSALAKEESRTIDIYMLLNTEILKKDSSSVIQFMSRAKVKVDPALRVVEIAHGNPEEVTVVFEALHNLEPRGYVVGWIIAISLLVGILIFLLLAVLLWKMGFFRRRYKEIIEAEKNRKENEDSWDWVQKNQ

[2] = biological target: T1, human α9 integrin (human); assay: FACS on Human α9/CHO-K1 cells and human neutrophils, FITC-labeled anti-mouse IgG secondary
[3] = biological target: T1, human α9 integrin (human); assay: FACS on CHO/huα9 cells, FITC anti-human IgG
[4] = biological target: T1, human α9 integrin (human); assay: cell ELISA on CHO/huα9 cells, HRP anti-human IgG

Binder | binding [1] | binding [2] | binding [3] | binding [4]
B1 | binds | binds | – | –
B2 | – | – | binds | binds

Source: US20100329980A1 (GENE TECHNO SCIENCE, published 2010)
